Experimental data published in PMC6283879, “Structural assembly of the megadalton-sized receptor for intestinal vitamin B12 uptake and kidney protein reabsorption” (Nature Communications, 2018).
No constants are given. Whether binding was seen depends on the method and setting. For some of these results: Binding seen in cells or lysates may run through a third protein. Some binding calls cover weakened binding; strength is not graded here.

The chains behind the UniProt entries cited, without tags or fusion partners. Where a name states a change or a piece, a line headed by the entry shows the natural chain unless it says otherwise. Residues count along the entry.
UniProt P27352, residues 19-417: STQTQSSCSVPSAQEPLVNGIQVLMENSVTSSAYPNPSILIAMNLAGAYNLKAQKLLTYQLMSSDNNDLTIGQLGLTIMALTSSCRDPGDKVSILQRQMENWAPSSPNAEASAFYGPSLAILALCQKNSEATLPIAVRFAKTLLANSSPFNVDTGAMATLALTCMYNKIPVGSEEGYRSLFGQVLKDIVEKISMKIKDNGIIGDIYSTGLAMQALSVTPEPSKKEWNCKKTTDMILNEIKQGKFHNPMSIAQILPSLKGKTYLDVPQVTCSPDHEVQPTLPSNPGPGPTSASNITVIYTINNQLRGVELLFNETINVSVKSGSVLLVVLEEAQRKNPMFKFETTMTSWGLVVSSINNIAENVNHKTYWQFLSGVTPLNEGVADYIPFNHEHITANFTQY
UniProt F1RWC3: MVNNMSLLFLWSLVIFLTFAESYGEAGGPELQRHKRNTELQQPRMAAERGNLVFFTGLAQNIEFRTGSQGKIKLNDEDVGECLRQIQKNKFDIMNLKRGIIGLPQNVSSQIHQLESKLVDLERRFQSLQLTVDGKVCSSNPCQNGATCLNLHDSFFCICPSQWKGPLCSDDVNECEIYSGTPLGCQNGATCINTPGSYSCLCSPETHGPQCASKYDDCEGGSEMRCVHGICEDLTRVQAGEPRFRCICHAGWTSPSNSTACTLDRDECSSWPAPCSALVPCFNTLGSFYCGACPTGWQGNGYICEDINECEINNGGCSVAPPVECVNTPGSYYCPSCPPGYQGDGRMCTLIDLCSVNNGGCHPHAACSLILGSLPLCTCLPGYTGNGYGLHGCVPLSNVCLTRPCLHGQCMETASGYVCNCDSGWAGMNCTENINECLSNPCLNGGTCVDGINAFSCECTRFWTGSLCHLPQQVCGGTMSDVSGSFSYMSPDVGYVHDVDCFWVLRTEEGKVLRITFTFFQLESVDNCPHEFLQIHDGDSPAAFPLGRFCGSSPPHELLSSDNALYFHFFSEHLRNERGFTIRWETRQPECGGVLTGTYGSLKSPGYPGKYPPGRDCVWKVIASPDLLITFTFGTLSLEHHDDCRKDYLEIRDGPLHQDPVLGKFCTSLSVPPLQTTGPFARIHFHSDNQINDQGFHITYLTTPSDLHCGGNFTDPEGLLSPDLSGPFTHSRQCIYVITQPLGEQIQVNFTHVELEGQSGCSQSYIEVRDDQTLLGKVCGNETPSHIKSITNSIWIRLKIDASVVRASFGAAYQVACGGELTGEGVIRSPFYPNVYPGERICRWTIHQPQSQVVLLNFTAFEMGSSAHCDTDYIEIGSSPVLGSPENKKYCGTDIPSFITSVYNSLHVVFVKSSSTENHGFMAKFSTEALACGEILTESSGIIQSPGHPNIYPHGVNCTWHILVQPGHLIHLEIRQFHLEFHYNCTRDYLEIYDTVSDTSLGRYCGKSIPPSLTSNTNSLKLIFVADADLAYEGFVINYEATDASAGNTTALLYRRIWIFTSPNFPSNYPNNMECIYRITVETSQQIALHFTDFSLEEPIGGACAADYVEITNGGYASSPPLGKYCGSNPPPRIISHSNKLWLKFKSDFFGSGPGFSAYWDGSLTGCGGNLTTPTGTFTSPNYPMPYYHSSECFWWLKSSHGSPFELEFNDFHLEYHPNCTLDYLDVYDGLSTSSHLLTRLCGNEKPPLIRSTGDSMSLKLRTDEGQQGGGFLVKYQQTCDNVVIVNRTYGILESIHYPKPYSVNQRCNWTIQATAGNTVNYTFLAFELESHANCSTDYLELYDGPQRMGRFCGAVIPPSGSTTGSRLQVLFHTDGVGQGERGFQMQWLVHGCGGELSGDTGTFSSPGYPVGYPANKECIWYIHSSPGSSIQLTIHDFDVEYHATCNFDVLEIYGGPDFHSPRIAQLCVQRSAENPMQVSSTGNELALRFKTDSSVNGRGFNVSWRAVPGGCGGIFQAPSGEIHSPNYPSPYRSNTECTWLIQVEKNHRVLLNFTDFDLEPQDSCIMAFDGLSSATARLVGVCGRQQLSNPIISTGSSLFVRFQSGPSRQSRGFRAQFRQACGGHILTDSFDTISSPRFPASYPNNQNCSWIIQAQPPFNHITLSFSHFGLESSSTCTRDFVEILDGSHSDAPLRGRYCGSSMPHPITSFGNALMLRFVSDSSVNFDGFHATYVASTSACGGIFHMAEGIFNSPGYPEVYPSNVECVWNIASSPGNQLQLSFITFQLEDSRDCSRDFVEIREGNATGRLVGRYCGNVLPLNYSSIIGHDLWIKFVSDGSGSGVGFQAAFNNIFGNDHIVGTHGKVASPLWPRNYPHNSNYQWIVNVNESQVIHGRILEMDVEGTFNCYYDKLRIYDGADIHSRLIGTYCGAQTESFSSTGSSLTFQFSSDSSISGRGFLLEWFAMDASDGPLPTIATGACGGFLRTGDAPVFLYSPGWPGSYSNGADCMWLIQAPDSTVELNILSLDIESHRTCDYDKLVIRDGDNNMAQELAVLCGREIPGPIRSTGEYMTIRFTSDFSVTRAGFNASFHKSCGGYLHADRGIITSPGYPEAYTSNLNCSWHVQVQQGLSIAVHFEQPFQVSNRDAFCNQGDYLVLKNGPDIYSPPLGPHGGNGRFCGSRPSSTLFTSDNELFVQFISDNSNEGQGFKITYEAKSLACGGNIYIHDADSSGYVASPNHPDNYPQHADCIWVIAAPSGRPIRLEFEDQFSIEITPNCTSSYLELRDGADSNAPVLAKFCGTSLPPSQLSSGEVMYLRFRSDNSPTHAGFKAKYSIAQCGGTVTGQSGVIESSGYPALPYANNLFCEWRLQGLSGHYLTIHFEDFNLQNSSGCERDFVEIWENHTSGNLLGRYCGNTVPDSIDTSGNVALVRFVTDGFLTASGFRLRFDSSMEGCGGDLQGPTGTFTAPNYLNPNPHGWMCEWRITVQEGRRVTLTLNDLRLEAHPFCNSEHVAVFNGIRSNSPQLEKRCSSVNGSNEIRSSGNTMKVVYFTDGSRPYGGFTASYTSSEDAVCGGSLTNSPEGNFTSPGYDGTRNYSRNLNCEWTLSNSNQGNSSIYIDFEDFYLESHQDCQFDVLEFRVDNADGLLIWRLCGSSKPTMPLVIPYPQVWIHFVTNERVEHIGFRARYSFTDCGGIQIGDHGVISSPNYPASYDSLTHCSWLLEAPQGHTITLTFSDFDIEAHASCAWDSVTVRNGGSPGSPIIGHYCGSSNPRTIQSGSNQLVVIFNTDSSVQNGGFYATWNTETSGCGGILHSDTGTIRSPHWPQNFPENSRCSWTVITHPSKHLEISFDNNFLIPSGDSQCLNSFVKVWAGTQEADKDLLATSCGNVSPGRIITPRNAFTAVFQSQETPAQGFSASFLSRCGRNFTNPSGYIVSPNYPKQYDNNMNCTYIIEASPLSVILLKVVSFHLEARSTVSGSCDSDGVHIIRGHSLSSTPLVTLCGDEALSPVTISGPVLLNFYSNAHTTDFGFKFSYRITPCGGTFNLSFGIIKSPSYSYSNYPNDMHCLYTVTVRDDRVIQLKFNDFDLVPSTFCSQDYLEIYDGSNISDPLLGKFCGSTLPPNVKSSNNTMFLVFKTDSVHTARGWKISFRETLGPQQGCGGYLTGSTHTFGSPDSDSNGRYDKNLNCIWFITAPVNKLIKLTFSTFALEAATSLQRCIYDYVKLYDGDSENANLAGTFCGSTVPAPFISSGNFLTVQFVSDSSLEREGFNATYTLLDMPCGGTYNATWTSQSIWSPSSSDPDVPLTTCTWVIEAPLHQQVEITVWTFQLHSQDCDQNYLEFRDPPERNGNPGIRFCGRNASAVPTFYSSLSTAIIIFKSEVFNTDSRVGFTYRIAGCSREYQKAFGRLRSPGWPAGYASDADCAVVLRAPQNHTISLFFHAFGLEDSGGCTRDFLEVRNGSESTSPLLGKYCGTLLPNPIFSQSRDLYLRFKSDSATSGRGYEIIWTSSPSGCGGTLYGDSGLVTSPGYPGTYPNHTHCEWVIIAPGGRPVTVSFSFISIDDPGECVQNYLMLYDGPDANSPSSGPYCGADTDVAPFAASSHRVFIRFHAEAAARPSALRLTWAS
UniProt F1SAM7: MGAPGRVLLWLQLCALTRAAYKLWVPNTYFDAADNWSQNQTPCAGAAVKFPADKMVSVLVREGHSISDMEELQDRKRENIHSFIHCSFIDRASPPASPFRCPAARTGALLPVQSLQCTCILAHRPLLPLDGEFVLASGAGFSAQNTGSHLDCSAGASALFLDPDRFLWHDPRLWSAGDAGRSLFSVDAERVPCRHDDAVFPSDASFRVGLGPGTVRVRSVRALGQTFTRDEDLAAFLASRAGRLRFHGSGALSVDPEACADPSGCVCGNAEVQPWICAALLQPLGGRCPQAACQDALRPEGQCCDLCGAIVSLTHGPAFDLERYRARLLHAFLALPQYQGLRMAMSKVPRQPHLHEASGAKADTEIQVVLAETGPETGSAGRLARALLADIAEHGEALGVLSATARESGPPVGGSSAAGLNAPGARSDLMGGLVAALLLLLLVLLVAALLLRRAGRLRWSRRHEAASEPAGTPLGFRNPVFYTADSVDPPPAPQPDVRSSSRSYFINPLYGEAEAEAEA

T1: AMN(20–357) T41I mutant (human) (UniProt Q9BXJ7)
T1 sequence: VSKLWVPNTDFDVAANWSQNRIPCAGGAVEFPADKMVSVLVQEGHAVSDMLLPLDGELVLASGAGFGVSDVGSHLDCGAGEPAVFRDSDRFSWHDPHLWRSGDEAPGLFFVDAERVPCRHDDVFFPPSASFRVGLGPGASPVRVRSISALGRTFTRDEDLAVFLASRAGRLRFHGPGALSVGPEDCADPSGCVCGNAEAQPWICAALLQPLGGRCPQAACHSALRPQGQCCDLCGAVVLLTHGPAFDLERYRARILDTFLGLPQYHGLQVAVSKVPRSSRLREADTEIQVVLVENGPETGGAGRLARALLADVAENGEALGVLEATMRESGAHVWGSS

T2: ectodomain of human AMN (residues 20–357) (human) (UniProt Q9BXJ7)
T2 sequence: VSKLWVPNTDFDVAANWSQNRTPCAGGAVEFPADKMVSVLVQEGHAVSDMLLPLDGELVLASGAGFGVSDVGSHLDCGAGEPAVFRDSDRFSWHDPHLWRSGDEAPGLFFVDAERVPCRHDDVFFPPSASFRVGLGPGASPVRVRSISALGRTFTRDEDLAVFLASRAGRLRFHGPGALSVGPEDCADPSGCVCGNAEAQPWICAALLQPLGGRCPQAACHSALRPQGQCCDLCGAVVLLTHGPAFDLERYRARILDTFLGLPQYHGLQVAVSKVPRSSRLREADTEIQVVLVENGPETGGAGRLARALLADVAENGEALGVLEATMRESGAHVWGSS


Key:
[1] = target: human intrinsic factor in complex with vitamin B12 (IF-B12) (human) (UniProt P27352); assay: affinity chromatography; human IF-B12 immobilised on a column; solubilised porcine kidney membranes applied in 10 mM HEPES, 140 mM NaCl, 2 mM CaCl2, 1 mM MgCl2, 0.3% CHAPS; bound proteins eluted with 10 mM EDTA; only the target purified
[2] = target: full-length cubam purified from porcine kidney (porcine (endogenous in kidney)) (UniProt F1RWC3+F1SAM7); assay: negative-stain electron microscopy; purified porcine cubam in the presence of Ca2+ (20 mM Tris–HCl pH 7.6, 150 mM KCl, 5 mM CaCl2, 0.3% CHAPS); 2% uranyl formate; single-stem and double-stem forms; both purified
[3] = target: T1, AMN(20–357) T41I mutant (human); assay: pull-down; thioredoxin–AMN(20–357) T41I and cubilin(26–135) co-expressed in E. coli ShuffleT7; lysate supernatant loaded on a His-tag purification column (20 mM HEPES pH 7.6, 500 mM NaCl, 5 mM imidazole, 10% glycerol), imidazole gradient; eluate blotted with AMN 17-44-3 and cubilin 17-44-5
[4] = target: T2, ectodomain of human AMN (residues 20–357) (human); assay: crystal structure; AMN(20–357) and cubilin(26–135) co-expressed in E. coli and co-purified; crystals at 4 °C, sitting drop, 1.5 M magnesium sulphate, 0.1 M MES pH 5.5; 2.3 Å, SAD phasing; both purified

binding [1]	binding [2]	binding [3]	binding [4]	Molecule
binds	binds	–	–	full-length cubam purified from porcine kidney (from UniProt F1RWC3 37-3625; F1SAM7 20-519) (complex)
–	–	binds	binds	N-terminal fragment of cubilin (residues 26–135) (domain or fragment, human, UniProt O60494 26-135, looked up, The methods name 'human' before AMN only ('human AMN ... and the N-terminal fragment of cubilin'); Cloned into the NdeI site of multiple cloning site 2 of pACYCDuet-1; also called trimeric cubilin; source: also in E. coli lysate / His-tag column eluate with the AMN T41I mutant) GELELQRQKRSINLQQPRMATERGNLVFLTGSAQNIEFRTGSLGKIKLNDEDLSECLHQIQKNKEDIIELKGSAIGLPQNISSQIYQLNSKLVDLERKFQGLQQTVDKKV
